Assay results: paper PMC6430605
No constants are given. Whether binding was seen depends on the method and setting. In cells and extracts the contact can be indirect. Some entries that bind do so weakly or less than the wild type. For part of these data: Sequences can lack the tags named with a protein.

Protein sequences, listed by entry. Tags and fused reporters are not part of them.
UniProt Q01101: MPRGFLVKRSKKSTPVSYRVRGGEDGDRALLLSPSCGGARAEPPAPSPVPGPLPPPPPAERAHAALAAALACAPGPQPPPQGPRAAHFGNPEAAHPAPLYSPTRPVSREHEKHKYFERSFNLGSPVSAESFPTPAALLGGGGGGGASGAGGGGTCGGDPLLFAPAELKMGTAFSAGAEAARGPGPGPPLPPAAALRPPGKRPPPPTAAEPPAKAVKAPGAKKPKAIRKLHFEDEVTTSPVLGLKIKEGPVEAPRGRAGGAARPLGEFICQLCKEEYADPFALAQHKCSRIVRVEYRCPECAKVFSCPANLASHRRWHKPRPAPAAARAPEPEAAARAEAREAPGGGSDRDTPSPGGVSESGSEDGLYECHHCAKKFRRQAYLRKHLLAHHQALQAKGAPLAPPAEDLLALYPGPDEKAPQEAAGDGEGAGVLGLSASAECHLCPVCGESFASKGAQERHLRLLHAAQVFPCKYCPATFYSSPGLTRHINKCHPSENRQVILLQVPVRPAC
UniProt P30052: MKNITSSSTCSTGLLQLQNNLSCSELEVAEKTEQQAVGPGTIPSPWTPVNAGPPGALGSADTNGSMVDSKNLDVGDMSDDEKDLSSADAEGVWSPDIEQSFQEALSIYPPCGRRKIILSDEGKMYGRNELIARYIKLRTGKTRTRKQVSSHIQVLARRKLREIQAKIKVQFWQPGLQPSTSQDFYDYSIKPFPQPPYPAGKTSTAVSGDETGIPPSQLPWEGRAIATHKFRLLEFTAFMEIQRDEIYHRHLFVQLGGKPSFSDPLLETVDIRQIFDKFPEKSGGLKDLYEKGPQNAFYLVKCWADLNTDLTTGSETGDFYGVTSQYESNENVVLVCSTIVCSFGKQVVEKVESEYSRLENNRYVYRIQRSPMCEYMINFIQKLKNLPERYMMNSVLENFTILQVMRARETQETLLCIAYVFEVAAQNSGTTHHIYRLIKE
UniProt P46937: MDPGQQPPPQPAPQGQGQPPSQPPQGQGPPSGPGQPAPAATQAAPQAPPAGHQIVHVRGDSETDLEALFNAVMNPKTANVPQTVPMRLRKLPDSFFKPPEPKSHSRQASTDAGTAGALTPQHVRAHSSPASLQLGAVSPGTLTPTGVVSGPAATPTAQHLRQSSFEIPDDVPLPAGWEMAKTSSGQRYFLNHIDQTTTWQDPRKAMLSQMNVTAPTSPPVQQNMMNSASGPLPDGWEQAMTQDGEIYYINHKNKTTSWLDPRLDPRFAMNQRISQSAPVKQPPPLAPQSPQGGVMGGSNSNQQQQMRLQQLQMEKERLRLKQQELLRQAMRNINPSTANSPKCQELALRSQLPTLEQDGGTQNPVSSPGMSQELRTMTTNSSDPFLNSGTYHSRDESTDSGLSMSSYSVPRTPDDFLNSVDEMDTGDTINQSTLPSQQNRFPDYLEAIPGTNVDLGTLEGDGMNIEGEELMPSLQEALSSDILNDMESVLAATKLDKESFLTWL

Legend:
[1] = target: Insulinoma-associated 1 (INSM1) (human) (UniProt Q01101); assay: co-IP; 293T cells expressing the indicated constructs, IP by anti-FLAG, pairwise
[2] = target: Insulinoma-associated 1 (INSM1) (human) (UniProt Q01101); assay: co-IP; 293T cells expressing INSM1 and YAP, with TEAD1 co-expressed, IP by anti-FLAG
[3] = target: Myc-Sd (Drosophila) (UniProt P30052); assay: co-IP; Drosophila S2R+ cells transfected with epitope-tagged constructs, IP by anti-FLAG

For YAP (from UniProt P46937 1-504), the binding [1] was “binds weakly” and the binding [2] was “binds”.

B1: HA-Yki (protein, UniProt Q45VV3 1-395)
chain: MLTTMSASSNTNSLIEKEIDDEDMLSPIKSNNLVVRVNQDTDDNLQALFDSVLNPGDAKRPLQLPLRMRKLPNSFFTPPAPSHSRANSADSTYDAGSQSSINIGNKASIVQQPDGQSPIAAIPQLQIQPSPQHSRLAIHHSRARSSPASLQQNYNVRARSDAAAANNPNANPSSQQQPAGPTFPENSAQEFPSGAPASSAIDLDAMNTCMSQDIPMSMQTVHKKQRSYDVISPIQLNRQLGALPPGWEQAKTNDGQIYYLNHTTKSTQWEDPRIQYRQQQQILMAERIKQNDVLQTTKQTTTSTIANNLGPLPDGWEQAVTESGDLYFINHIDRTTSWNDPRMQSGLSVLDCPDNLVSSLQIEDNLCSNLFNDAQAIVNPPSSHKPDDLEWYKIN
With B1 the binding [3] was “binds”.
